This passage reports binding results from PMC9321427.

Amino acid sequences for entries named in this document (tags omitted). Residues count along the entry.
UniProt P55085, residues 37-397: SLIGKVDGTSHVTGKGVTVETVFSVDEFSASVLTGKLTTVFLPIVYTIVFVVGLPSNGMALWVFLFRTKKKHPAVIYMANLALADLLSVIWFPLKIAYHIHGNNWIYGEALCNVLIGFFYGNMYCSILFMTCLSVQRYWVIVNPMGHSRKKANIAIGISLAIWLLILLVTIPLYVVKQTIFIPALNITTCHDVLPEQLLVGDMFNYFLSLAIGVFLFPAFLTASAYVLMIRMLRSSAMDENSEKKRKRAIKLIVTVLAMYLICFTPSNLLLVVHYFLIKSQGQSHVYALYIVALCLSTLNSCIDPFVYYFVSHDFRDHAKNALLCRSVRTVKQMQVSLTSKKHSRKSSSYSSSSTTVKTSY
UniProt P49407: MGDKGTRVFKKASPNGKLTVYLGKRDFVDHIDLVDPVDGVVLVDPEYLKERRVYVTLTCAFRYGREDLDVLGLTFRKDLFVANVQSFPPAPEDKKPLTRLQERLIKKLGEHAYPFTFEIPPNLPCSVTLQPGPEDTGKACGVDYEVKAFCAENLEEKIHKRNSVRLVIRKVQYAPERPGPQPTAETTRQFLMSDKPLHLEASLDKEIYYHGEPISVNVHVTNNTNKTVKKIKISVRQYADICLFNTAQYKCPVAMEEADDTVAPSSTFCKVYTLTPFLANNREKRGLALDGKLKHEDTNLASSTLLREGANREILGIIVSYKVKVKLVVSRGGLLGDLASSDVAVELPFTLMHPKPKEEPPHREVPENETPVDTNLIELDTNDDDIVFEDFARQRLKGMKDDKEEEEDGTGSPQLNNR

This test concerns the target PAR2-Rluc8 cleaved after Arg36 by trypsin or GzmK (tethered ligand exposed) (human) (UniProt P55085). Kind of test: FRET or BRET; BRET between PAR2-Rluc8 and β-arrestin1-YFP in transfected HEK 293 cells; cells in Hank's Buffered Salt Solution pH 7.4, 37°C, treated with trypsin (10 nM) or GzmK (100 nM) for 2 h, then 5 μM coelenterazine. Background: In BRET a luciferase serves as donor, and the signal depends on an acceptor being close.

Results are given in words; binding and its absence hold for the method and conditions named. In cells and extracts the contact can be indirect. Some binding calls cover weakened binding; strength is not graded here.

Take “β-arrestin1-YFP (from UniProt P49407 1-418)”: the binding result was “binds”.
